Laboratory results taken from US12441790B2, “Binding proteins to the human thrombin receptor, PAR4” (MONASH UNIVERSITY, priority 2017, dated 2025).
Some of these results come from one statement about several compounds together.

Target: T1, human PAR4 containing an N-terminal FLAG tag (Homo sapiens, UniProt Q96RI0)
T1 construct: expressed in transfected cells; host or cells: HEK293 / HEK293T
T1 sequence (Q96RI0 18-385): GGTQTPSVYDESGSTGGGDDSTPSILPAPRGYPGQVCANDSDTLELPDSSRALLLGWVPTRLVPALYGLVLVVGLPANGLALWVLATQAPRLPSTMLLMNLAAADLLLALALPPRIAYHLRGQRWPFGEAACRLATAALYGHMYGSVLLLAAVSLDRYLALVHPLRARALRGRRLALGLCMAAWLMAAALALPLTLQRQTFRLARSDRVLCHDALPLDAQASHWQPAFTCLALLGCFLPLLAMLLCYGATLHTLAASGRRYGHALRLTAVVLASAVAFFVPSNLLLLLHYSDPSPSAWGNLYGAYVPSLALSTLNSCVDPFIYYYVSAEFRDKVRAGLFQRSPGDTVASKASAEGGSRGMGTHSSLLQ
Assay: PAR4 thrombin cleavage assay, FLAG-tagged PAR4 on HEK293 cells, flow cytometry
Type: cell-based
Details: sub-clone supernatant 100 μl, HEK293T cell suspension 100 μl
Protocol: 1×10^6 HEK293T cells (in Dulbecco's modified eagle's medium+10% foetal calf serum) were seeded onto 12-well plates 24 hours before transfection. When confluent, they were transiently transfected with 1 μg of DNA from one of the PAR4 variants (expression vectors pBJ-FLAG-PAR4-120A-296F or pBJ-FLAG-PAR4-120T-296F; Edelstein et al (2014) Blood 124(23):3450-8) plus 4 μL of Lipofectamine 2000, as per manufacturer's instructions. Forty-eight hours after transfection, cells were harvested and washed twice with PBS, then resuspended to a count of 1×10^6/mL. Cells (50 μL assays/0.5×10^5 cells per condition) were then pre-treated with either 1, 10 or 100 μg/mL of 5RC3 or sub-clone 5A.RC3.F10b.H4b or 100 μg/mL matched Isotype control (mouse IgG1) for 15 minutes at 37° C. Cells were then stimulated with 2 U/mL of thrombin for 10 minutes. The reaction was stopped by the addition of 4 U/mL hirudin. Cells were then washed once and resuspended with PBS containing a 1:200 dilution of FITC anti-FLAG antibody (Sigma, clone M2) and incubated for 1 hour at room temperature in the dark. Cells were then fixed with 1% paraformaldehyde (final concentration) and read on a FACSCalibur flow cytometer to determine % of FL1/FITC-Positive events. […]
[…] Cleavage of PAR4 by thrombin was measured by loss of FLAG tag from the PAR4 expression HEK293T cells using flow cytometry.

B1: 5A.RC3: anti-PAR4 monoclonal antibody, IgG2a/K, VH SEQ ID NO:11 and VL SEQ ID NO:12 (antibody, V domains shown)
VH: QVQLVESGGGVVQPGRSLRLSCAASGFTLSNYGMHWVRQAPGKGLEWVSVIWYDGSNKHYADSVKGRFTISRDNSKNTLYLQMNSLRAEDTAVYYCARESIVEVLPPFDYWGQGTLVTVSS
VL: KIVLTQSPGTLSLSPGERVTLSCRASQRVRNNYLAWFQQKPGQAPRLFIYGASSRATGIPDRFSGSGSGTDFIFTISRLEPEDFAVYYCQQYGNSYTFGQGTKLEIK
modifications: VH of 5A.RC3; VL of 5A.RC3
  blocked thrombin-induced cleavage of PAR4: over 90%
